PubChem BioAssay AID1259308 – NCATS, 2017
In all, the deposit lists about 59,000 reagents; shown is a random part of them. Of all reagents, about 1,510 (2.6%) got an active call. 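Calls use total luciferase alone and ignore viability, so some active siRNAs may act by altering cell number.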 Entries without a mark were called inactive. The numbers tell different reagents against one gene apart. Further read-outs or replicates are left out here.

Aim: 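Candidate targets for better recombinant protein yield in mammalian cells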 (primary screen)
System: human HEK293 embryonic kidney cells stably expressing firefly luciferase (HEK-CMV-Luc2-Hygro)
Reagent: single siRNA against human genes, 0.8 pmol siRNA per well
Timing: 72 h
Measurement: 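Reporter luminescence and viable-cell signal on separate replicate plates, given as percent of non-targeting control and median/MAD z-scores, plus per-cell luciferase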
Scale: total luciferase, z-score and total luciferase, % of control: higher = more reporter protein produced; luciferase per cell, z-score: higher = more reporter output per viable cell
Call rule: 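An siRNA counts as active if its total luciferase robust z-score exceeds 3; genes with two or more such siRNAs out of three were retested with fresh siRNAs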
Calls: active = raised luciferase; inactive = no rise

| gene knocked down | reagent | total luciferase, z-score | total luciferase, % of control | luciferase per cell, z-score |
| --- | --- | --- | --- | --- |
| BBS5 | 1 | 0.278 | 87.4 | 0.809 |
| BBS5 | 2 | 1.5 | 112 | 1.4 |
| BBS5 | 3 | -0.343 | 75.1 | -0.358 |
| KLHL2 | 1 | 1.52 | 112 | 1.37 |
| KLHL2 | 2 | 0.591 | 93.6 | -0.198 |
| KLHL2 | 3 | 0.0628 | 83.1 | 1 |
| NUTM1 | 1 | 0.894 | 99.7 | 0.558 |
| NUTM1 | 2 | -0.251 | 76.9 | -0.361 |
| NUTM1 | 3 | 2.59 | 133 | 4.17 |
| BEX5 | 1 | -0.0979 | 79.9 | 0.156 |
| BEX5 | 2 | 0.594 | 93.7 | 0.209 |
| BEX5 | 3 | 1.35 | 109 | 0.709 |

Reformatted: entries from further up.
BEX5 #2
- total luciferase, z-score: 0.594
- total luciferase, % of control: 93.7
- luciferase per cell, z-score: 0.209

BEX5 #3
- total luciferase, z-score: 1.35
- total luciferase, % of control: 109
- luciferase per cell, z-score: 0.709

The list goes on:
| gene knocked down | reagent | total luciferase, z-score | total luciferase, % of control | luciferase per cell, z-score |
| --- | --- | --- | --- | --- |
| ARF5 | 1 | 1.37 | 109 | 0.41 |
| ARF5 | 2 | 0.57 | 93.2 | 0.0804 |
| ARF5 | 3 | 0.0726 | 83.3 | -0.926 |
| SPMIP4 | 1 | -0.873 | 64.5 | -1.17 |
| SPMIP4 | 2 | 0.276 | 87.4 | 0.431 |
| SPMIP4 | 3 | 3.5 (active) | 152 | 2.29 |
| SPEF1 | 1 | 0.0184 | 82.3 | 2.98 |
| SPEF1 | 2 | 0.358 | 89 | 0.135 |
| SPEF1 | 3 | 0.507 | 92 | 0.247 |
| SH3BP4 | 1 | 0.81 | 98 | 1.73 |
| SH3BP4 | 2 | -0.0509 | 80.9 | 0.236 |
| SH3BP4 | 3 | 1.07 | 103 | 0.708 |
